Data from PubChem BioAssay AID540276 (National Center for Advancing Translational Sciences (NCATS), 2011).
Screen size: about 300,000 compounds; about 5,400 (1.8%) were called active. The shares of active, inactive and inconclusive entries below differ from those in the screen. Calls follow the shape of the full dose curve; tested in HEK293 cells. Potencies of inconclusive entries are doubtful fits and often do not repeat.

Assay: qHTS for inhibitors of binding or entry into cells for Marburg Virus
Conditions: Marburg virus pseudotyped entry inhibition, cell reporter; series mostly up to 37.8 µM
Potency is read from the fitted curve at half-maximal effect.

| SMILES | Potency |
| --- | --- |
| Nc1nn2c(-c3ccccc3)cc(=O)[nH]c2c1N=Nc1ccc(O)cc1 | inconclusive: 12.6 µM [inhibitor, partial curve, poor fit] |
| COc1ccc(NC(=O)c2c(C)oc3ccc(O)c(CN4CCN(C)CC4)c23)cc1Cl | inconclusive: 22.4 µM [inhibitor, single point] |
| Cc1csc(NC(=O)c2cnc3ccccc3n2)n1 | active: 5.62 µM |
| CCOC(=O)c1ccc(NC(=O)Nc2cc3c(cc2N2CCCCC2)n(CC)c(=O)n3CC)cc1 | inconclusive: 10 µM [inhibitor, partial curve, poor fit] |
| CC(=O)c1c(-c2ccc(Cl)cc2)c2ccccc2[nH]c1=O | inactive |
| CCN1C(=O)N(CC)C(O)(c2ccccc2)C1(O)c1ccccc1 (stereo not given) | inactive |
| COc1ccc(-c2nc(CN3CCCC(C(=O)NC4CCCC4)C3)c(C)o2)cc1 (stereo not given) | inconclusive: 29.1 µM [inhibitor, single point] |
| CCCCN1C(=O)C(=O)N(c2ccccc2)C1=S | inactive |
| CC(C)=N/N=C1/NC(=O)C(c2ccccc2)S1 (stereo not given) | inconclusive: 12.6 µM [activator, single point] |
| Cc1cccc(OC(=O)c2snnc2C)c1C | inactive |
| COc1ccccc1N1C(=O)C2C3CC(c4ccccc4)C(C3)C2C1=O (stereo not given) | inconclusive: 1 µM [activator, partial curve, poor fit] |
| Cc1nc([N+](=O)[O-])c(Br)n1CC(=O)c1ccc(Br)cc1 | inconclusive: 0.0366 µM [inhibitor, full curve, poor fit] |
| Cc1c(/C=C/C(=O)c2ccccc2)cnn1C | inconclusive: 7.94 µM [activator, partial curve] |
| Cc1ccc(C)c(Cn2nnc3c(=O)[nH]c(C4CCN(C(=O)c5cccs5)CC4)nc32)c1 | inconclusive: 25.1 µM [inhibitor, single point] |
| NS(=O)(=O)c1cccc(NC(=O)CSc2ncc(C(F)(F)F)cc2Cl)c1 | inconclusive: 5.01 µM [inhibitor, full curve, poor fit] |
| NC(CP(=O)(O)O)C(=O)O (stereo not given) | inconclusive: 0.501 µM [inhibitor, full curve, poor fit] |
| COc1ccc2nc(-c3ccccc3)cc(OC)c2c1 | inconclusive: 35.5 µM [inhibitor, single point] |
| COc1cc2nc(N(CCN(C)C)C(=O)c3ccc(S(=O)(=O)N(C)CC4CCCO4)cc3)sc2cc1OC (stereo not given) | inactive |
| Cc1ccccc1NC(=O)CCS(=O)(=O)c1cccc2nonc12 | inactive |
| O=C(c1cc2ccccc2oc1=O)N(Cc1cccs1)C1CCS(=O)(=O)C1 (stereo not given) | inconclusive: 35.5 µM [activator, single point] |

Fetched one by one from the list above:

| SMILES | Potency |
| --- | --- |
| COc1ccccc1N1C(=O)C2C3CC(c4ccccc4)C(C3)C2C1=O (stereo not given) | inconclusive: 1 µM [activator, partial curve, poor fit] |
| CCOC(=O)c1ccc(NC(=O)Nc2cc3c(cc2N2CCCCC2)n(CC)c(=O)n3CC)cc1 | inconclusive: 10 µM [inhibitor, partial curve, poor fit] |
